PubChem BioAssay AID1224828, NIAID – 2016
Aim: 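Regulators linking TLR4 signalling to p65 nuclear translocation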 (primary screen). Cells: mouse RAW264.7 G9 macrophage reporter cells (GFP-p65, Tnf promoter-mCherry). Reagents: siRNA pool against mouse genes, 100 nM. Duration: 2 days siRNA transfection, then 40 min LPS before fixation. Conditions: LPS (Salmonella minnesota R595) at 10 ng/ml. Read-out: 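Imaged p65 nuclear translocation ratio, normalised to the plate median, converted to robust z-scores and averaged across two replicates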. Direction: p65 translocation robust z-score: higher = more nuclear NF-kappaB p65 after LPS than the plate median; nuclear/cytoplasmic p65 ratio: higher = more nuclear NF-kappaB p65. Rule for the call: 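Active if robust z is above 3.3 (negative regulators) or below -1.56, the Tlr4 control median (positive regulators); activity score 50 or more; control wells not called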. Meaning of the calls: active = hit (p65 shift raised or lowered); inactive = no clear change.
The whole screen tested about 17,000 reagents; this is a part drawn at random. Of all reagents, 762 (4.5%) got an active call. 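Active calls include both raised and lowered p65 entry, mostly lowered; wells with fewer than 50 cells lack a z-score.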 Raw values vary from plate to plate and are shown uncorrected. No sequences are given here.

Silencing of Slc25a5 (GeneID 11740) resulted in: p65 translocation robust z-score -0.2; nuclear/cytoplasmic p65 ratio, rep 1 = 1.56; nuclear/cytoplasmic p65 ratio, rep 2 = 1.42; low cell count flag enough cells to score; inactive.
Against Hook2 (GeneID 170833), the entry reads p65 translocation robust z-score 0.05; nuclear/cytoplasmic p65 ratio, rep 1 = 1.68; nuclear/cytoplasmic p65 ratio, rep 2 = 1.53; low cell count flag enough cells to score; inactive.
Slc38a5 (GeneID 209837) scored p65 translocation robust z-score -0.19; nuclear/cytoplasmic p65 ratio, rep 1 = 1.53; nuclear/cytoplasmic p65 ratio, rep 2 = 1.79; low cell count flag enough cells to score; inactive.
Ppp2r5c (GeneID 26931) scored p65 translocation robust z-score 0.5; nuclear/cytoplasmic p65 ratio, rep 1 = 1.53; nuclear/cytoplasmic p65 ratio, rep 2 = 1.5; low cell count flag enough cells to score; inactive.
Depletion of Hook1 (GeneID 77963) gave: p65 translocation robust z-score 0.92; nuclear/cytoplasmic p65 ratio, rep 1 = 1.83; nuclear/cytoplasmic p65 ratio, rep 2 = 1.63; low cell count flag enough cells to score; inactive.
Fgfbp3 (GeneID 72514) scored nuclear/cytoplasmic p65 ratio, rep 1 = 1.35; nuclear/cytoplasmic p65 ratio, rep 2 = 1.36; low cell count flag fewer than 50 cells per well; well left out of scoring; inactive.
After knock-down of Uqcrfs1 (GeneID 66694), the screen gave p65 translocation robust z-score -0.03; nuclear/cytoplasmic p65 ratio, rep 1 = 1.49; nuclear/cytoplasmic p65 ratio, rep 2 = 1.52; low cell count flag enough cells to score; inactive.
Depletion of Rdh11 (GeneID 17252) resulted in: nuclear/cytoplasmic p65 ratio, rep 1 = 1.41; nuclear/cytoplasmic p65 ratio, rep 2 = 1.19; low cell count flag fewer than 50 cells per well; well left out of scoring; inactive.
After knock-down of Sf3b3 (GeneID 101943) the results were p65 translocation robust z-score 0.53; nuclear/cytoplasmic p65 ratio, rep 1 = 1.4; nuclear/cytoplasmic p65 ratio, rep 2 = 1.65; low cell count flag enough cells to score; inactive.
Depletion of Adgrf3 (GeneID 381628) resulted in: p65 translocation robust z-score 0.08; nuclear/cytoplasmic p65 ratio, rep 1 = 1.48; nuclear/cytoplasmic p65 ratio, rep 2 = 1.63; low cell count flag enough cells to score; inactive.
After knock-down of Pls3 (GeneID 102866) the results were p65 translocation robust z-score -0.73; nuclear/cytoplasmic p65 ratio, rep 1 = 1.28; nuclear/cytoplasmic p65 ratio, rep 2 = 1.33; low cell count flag enough cells to score; inactive.
After knock-down of Rbbp8nl (GeneID 271887), the record shows nuclear/cytoplasmic p65 ratio, rep 1 = 0.997; nuclear/cytoplasmic p65 ratio, rep 2 = 0.945; low cell count flag fewer than 50 cells per well; well left out of scoring; inactive.
With knock-down of Cdh2 (GeneID 12558), the record shows p65 translocation robust z-score -0.24; nuclear/cytoplasmic p65 ratio, rep 1 = 1.42; nuclear/cytoplasmic p65 ratio, rep 2 = 1.36; low cell count flag enough cells to score; inactive.
Against Or2r11 (GeneID 258436), the entry reads nuclear/cytoplasmic p65 ratio, rep 1 = 1.55; nuclear/cytoplasmic p65 ratio, rep 2 = 1.1; low cell count flag fewer than 50 cells per well; well left out of scoring; inactive.

Entries above whose gene name begins with R or r:
Rdh11 (GeneID 17252): nuclear/cytoplasmic p65 ratio, rep 1 = 1.41; nuclear/cytoplasmic p65 ratio, rep 2 = 1.19; low cell count flag = fewer than 50 cells per well; well left out of scoring; outcome = inactive
Rbbp8nl (GeneID 271887): nuclear/cytoplasmic p65 ratio, rep 1 = 0.997; nuclear/cytoplasmic p65 ratio, rep 2 = 0.945; low cell count flag = fewer than 50 cells per well; well left out of scoring; outcome = inactive

More reagents:
Col4a5 (GeneID 12830) showed p65 translocation robust z-score -0.12; nuclear/cytoplasmic p65 ratio, rep 1 = 1.4; nuclear/cytoplasmic p65 ratio, rep 2 = 1.41; low cell count flag enough cells to score; inactive.
After knock-down of Dnajc5g (GeneID 231098), the record shows nuclear/cytoplasmic p65 ratio, rep 1 = 1.33; nuclear/cytoplasmic p65 ratio, rep 2 = 1.1; low cell count flag fewer than 50 cells per well; well left out of scoring; inactive.
Sfxn2 (GeneID 94279) gave nuclear/cytoplasmic p65 ratio, rep 1 = 1.29; nuclear/cytoplasmic p65 ratio, rep 2 = 1.14; low cell count flag fewer than 50 cells per well; well left out of scoring; inactive.
Silencing of Zfp771 (GeneID 244216) resulted in: p65 translocation robust z-score -1.6; nuclear/cytoplasmic p65 ratio, rep 1 = 1.32; nuclear/cytoplasmic p65 ratio, rep 2 = 1.27; low cell count flag enough cells to score; active.
With knock-down of Haghl (GeneID 68977), the record shows p65 translocation robust z-score -1.22; nuclear/cytoplasmic p65 ratio, rep 1 = 1.24; nuclear/cytoplasmic p65 ratio, rep 2 = 1.25; low cell count flag enough cells to score; inactive.
Depletion of Sh3d19 (GeneID 27059) came out at: p65 translocation robust z-score -0.93; nuclear/cytoplasmic p65 ratio, rep 1 = 1.28; nuclear/cytoplasmic p65 ratio, rep 2 = 1.15; low cell count flag enough cells to score; inactive.
With knock-down of 4930433I11Rik (GeneID 243944) the results were nuclear/cytoplasmic p65 ratio, rep 1 = 1.16; nuclear/cytoplasmic p65 ratio, rep 2 = 1.58; low cell count flag fewer than 50 cells per well; well left out of scoring; inactive.
